Measurements as given in US10206400B2, “Insecticidal compounds based on isoxazoline derivatives” (Syngenta Crop Protection LLC, priority 2009, dated 2019).
Some of these results come from one statement about several compounds together.

Assays:
Assay type in all cases: in vivo
[1] = tested on: Heliothis virescens; experiment: Heliothis virescens (tobacco budworm) egg/artificial diet test; conditions: 200 ppm (concentration in well 18 ppm), eggs 0-24 h old on artificial diet, 4 days; egg mortality, larval mortality, growth regulation
Procedure: Eggs (0-24 h old) were placed in 24-well microtiter plate on artificial diet and treated with test solutions at an application rate of 200 ppm (concentration in well 18 ppm) by pipetting. After an incubation period of 4 days, samples were checked for egg mortality, larval mortality, and growth regulation.

[2] = tested on: Myzus persicae; experiment: Myzus persicae (green peach aphid), systemic test; conditions: 12.5 ppm, roots of infested pea seedlings in test solution, 6 days; mortality, special effects on the plant
Source text: Myzus persicae (Green peach aphid), systemic test: Roots of pea seedlings, infested with an aphid population of mixed ages, are placed directly in the test solutions at an application rate of 12.5 ppm. 6 days after introduction, samples are checked for mortality and special effects on the plant. The following compounds gave at least 80% control of Myzus persicae: A3, B2, B3, B5, B6, B7, B8, B11, B12, C1, C2, C3,C4, C5, C6, C7, D1, E1, E2, G1, G3, G5, G6, H1, H5, H6, H9, H10, H11, H12, H13, H14, H18, H19, H20, H24, H25, and H26.

[3] = tested on: Spodoptera littoralis; experiment: Spodoptera littoralis (Egyptian cotton leafworm) leaf disc spray test; conditions: 200 ppm spray on cotton leaf discs, L1 larvae, mortality, feeding behavior, growth regulation 3 days after treatment
Source text: Cotton leaf discs were placed on agar in a 24-well microtiter plate and sprayed with test solutions at an application rate of 200 ppm. After drying, the leaf discs were infested with 5 L1 larvae. The samples were checked for mortality, feeding behavior, and growth regulation 3 days after treatment (DAT).

Row | Structure (SMILES) | control of Heliothis virescens [1] | control of Myzus persicae [2] | control of Spodoptera littoralis [3]
1 | Cc1cc(C2=NOC(c3cc(Cl)c(I)c(Cl)c3)(C(F)(F)F)C2)ccc1C(=O)NC1CO[S+]([O-])C1 (single isomer, unassigned) [Compound J10] | at least 80% | – | –
2 | Cc1cc(C2=NOC(c3cc(Cl)cc(Cl)c3)(C(F)(F)F)C2)ccc1C(=O)N[C@@H]1CON(CC(F)(F)F)C1=O (some centres unmarked) [Compound B5] | at least 80% | at least 80% | at least 80%
3 | CCN1OC[C@@H](NC(=O)c2ccc(C3=NOC(c4cc(C(F)(F)F)c(Cl)c(C(F)(F)F)c4)(C(F)(F)F)C3)cc2C)C1=O (stereo partly drawn) [Compound C4, 4-[5-(3,5-trifluoromethyl-4-chloro-phenyl)-5-trifluoromethyl-4,5-dihydro-isoxazol-3-yl]-2-methyl-N-((R)-2-ethyl-3-oxo-isoxazolidin-4-yl)-benzamide] | at least 80% | at least 80% | at least 80%
4 | CCN1OC[C@@H](NC(=O)c2ccc(C3=NOC(c4cc(Cl)cc(Cl)c4)(C(F)(F)F)C3)c3ncccc23)C1=O (some centres unmarked) [Compound H3] | at least 80% | – | at least 80%
5 | CCN1OC[C@@H](NC(=O)c2ccc(C3=NOC(c4cc(Cl)cc(Cl)c4)(C(F)(F)F)C3)cc2C2CC2)C1=O (some centres unmarked) [Compound H5] | at least 80% | at least 80% | at least 80%
6 | CCN1OC[C@@H](NC(=O)c2ccc(C3=NOC(c4cc(Cl)c(C#N)c(Cl)c4)(C(F)(F)F)C3)cc2C)C1=O (some centres unmarked) [Compound H6] | at least 80% | at least 80% | at least 80%
7 | CCN1OC[C@@H](NC(=O)c2ccc(C3=NOC(c4cc(Cl)cc(Cl)c4)(C(F)(F)F)C3)cc2)C1=O (some centres unmarked) [Compound H8] | at least 80% | – | at least 80%
8 | CCN1OC[C@@H](NC(=O)c2ccc(C3=NOC(c4cc(Cl)cc(Cl)c4)(C(F)(F)F)C3)cc2Br)C1=O (some centres unmarked) [Compound H9] | at least 80% | at least 80% | at least 80%
9 | CCN1OC[C@@H](NC(=O)c2ccc(C3=NOC(c4cc(Cl)cc(Cl)c4)(C(F)(F)F)C3)c3ccccc23)C1=O (some centres unmarked) [Compound H10] | at least 80% | at least 80% | at least 80%
10 | CCN1OC[C@@H](NC(=O)c2ccc(C3=NOC(c4cc(Cl)cc(C(F)(F)F)c4)(C(F)(F)F)C3)cc2C)C1=O (some centres unmarked) [Compound H11] | at least 80% | at least 80% | at least 80%
11 | Cc1cc(C2=NOC(c3cc(Cl)c(C#N)c(Cl)c3)(C(F)(F)F)C2)ccc1C(=O)N[C@@H]1CON(CC(F)(F)F)C1=O (some centres unmarked) [Compound H19] | at least 80% | at least 80% | at least 80%
12 | O=C(N[C@@H]1CON(CC(F)(F)F)C1=O)c1ccc(C2=NOC(c3cc(Cl)cc(Cl)c3)(C(F)(F)F)C2)cc1 (some centres unmarked) [Compound H21] | at least 80% | – | at least 80%
13 | O=C(N[C@@H]1CON(CC(F)(F)F)C1=O)c1ccc(C2=NOC(c3cc(Cl)cc(Cl)c3)(C(F)(F)F)C2)cc1Br (some centres unmarked) [Compound H22] | at least 80% | – | at least 80%
14 | O=C(N[C@@H]1CON(CC(F)(F)F)C1=O)c1ccc(C2=NOC(c3cc(Cl)cc(Cl)c3)(C(F)(F)F)C2)c2ccccc12 (some centres unmarked) [Compound H23] | at least 80% | – | at least 80%
15 | Cc1cc(C2=NOC(c3cc(Cl)cc(C(F)(F)F)c3)(C(F)(F)F)C2)ccc1C(=O)N[C@@H]1CON(CC(F)(F)F)C1=O (some centres unmarked) [Compound H24] | at least 80% | at least 80% | at least 80%
